Measurements from the supplement of paper PMC12578635.
± gives the standard deviation of the averaged measurements. This is one part of the list. Most values come without repeats; read them as rough.

What follows are compounds tested on RAW 264.7 macrophages infected with S. aureus JE2-lux (assay: host macrophage viability (CellTiter-Fluor) relative to DMSO vehicle; higher = more viable host cells). Settings: 10 µM; treatment time 4 h; gentamicin 50 µg/ml.

| Structure (SMILES) | host macrophage viability [%] |
| --- | --- |
| COc1ccccc1-n1c(SCC(=O)Nc2cccc3ccccc23)nc2c(c1=O)SCC2 | 106 |
| COc1ccc(/C=C/C(=O)O)cc1S(=O)(=O)NCc1ccc2c(c1)OCO2 | 115 |
| CCc1cccc(C)c1Nc1nc(N)c(C(=O)CC(C)C)s1 | 124 |
| O=C(Nc1ccc(F)cc1)c1c(O)c2ccccc2[nH]c1=O | 136 |
| COc1cccc(NC(=O)CSc2nn3c(=O)c(C)nnc3s2)c1 | 123 |
| COc1cccc(NC(=O)c2ccc(COc3cccc(C)c3)o2)c1 | 108 |
| CC1(C)CC(=O)C2=C(C1)OC(N)=C(C#N)C2Cc1ccccc1 (centres undefined) | 132 |
| COCCNC(=O)c1cnc2c(OC)cc(OC)cc2c1O | 105 |
| Cc1ccc(C)c(S(=O)(=O)Nc2ccc(O)c3ccccc23)c1 | 101 ± 3 |
| O=C1N/C(=N/c2ccc(O)cc2)S/C1=C\c1cccnc1 | 130 |
| CC(=O)Nc1ccc(NS(=O)(=O)c2c[nH]c(=O)[nH]c2=O)cc1 | 113 |
| COc1ccc(Nc2ncnc3sc(C(=O)O)c(C)c23)cc1Cl | 100 |
| Cc1sc2nc(C(C)C)n(C3CCN(C(=O)c4ccco4)CC3)c(=O)c2c1C | 95.1 |
| COC(=O)C1CCN(C(c2ccc(Cl)c(Cl)c2)c2sc3nc(C)nn3c2O)CC1 (centres undefined) | 113 |
| Cc1cc(Sc2ccc(N)cc2)n2nc(C)nc2n1 | 110 |
| NC(=O)C1CCCN(C(=O)c2ncoc2-c2cccc(F)c2)C1 (centres undefined) | 112 |
| O=C(CSc1nc2ccccc2[nH]1)c1cccs1 | 117 |
| CCN(CC)CCCNc1ncnc2sc3c(c12)CC(C)CC3 (centres undefined) | 112 |
| Cc1ccc(NC(=O)N2CCC(n3cnc4cccnc43)CC2)cc1Cl | 123 |
| O=C(CSc1nnc2[nH]c(=O)ccn12)NCc1ccccc1Cl | 102 |
| CCN(C(=O)c1ccccn1)c1nc2c(s1)CCc1oc(C)cc1-2 | 137 |
| O=C(Nc1ccc2c(c1)CCC2)c1cccc2nccnc12 | 120 |

| Structure (SMILES) | host macrophage viability [%] |
| --- | --- |
| COc1ccc(NC(=O)CSc2nnc3c(C)cc4ccccc4n23)cc1 | 124 |
| Cc1ccc(N2C(=O)c3cc4ccsc4n3CC2(C)C(=O)NC2CCCC2)c(Cl)c1 (centres undefined) | 117 |
| COc1ccc2sc(Nc3cccc(Br)c3)nc2c1 | 107 |
| Fc1ccc(-c2ccc(/C=N/n3cnnc3)o2)cc1 | 127 |
| O=C(NCc1ccc(F)cc1)C1CCN(C(=O)Nc2cccc(Cl)c2)CC1 | 115 |
| CC(=O)Nc1cccc(NC(=O)C(=O)NCCSc2nc(-c3ccccc3)c[nH]2)c1 | 118 |
| COc1ccccc1CNC(=O)C1c2ccccc2C(=O)N1Cc1cccnc1 (centres undefined) | 116 |
| O=C(CSc1nnc2c3ccccc3nc(Cc3ccccc3)n12)Nc1nccs1 | 122 |
| COc1ccccc1CCNC(=O)c1c(O)nc2cc(C)ccn2c1=O | 114 |
| CCSc1nnc(NC(=O)CSc2nnc(C)c(=O)n2N)s1 | 122 |
| O=C1CCc2cc(S(=O)(=O)NCC(c3ccccc3)N3CCOCC3)ccc2N1 (centres undefined) | 126 |
| Cc1ccc2nnc(-c3ccccc3)c(C(=O)NCc3ccc4c(c3)OCO4)c2c1 | 122 |
| CCc1cccc(C)c1NC(=O)Cn1c(=O)c2cccnc2n(-c2ccccc2)c1=O | 109 |
| CN(C)c1ccc(NC(=O)CSc2nnc3c(n2)[nH]c2ccc(Cl)cc23)cc1 | 115 |
| COc1cc2cc(C#N)c(SCC(=O)Nc3ccc4c(c3)OCCO4)nc2cc1OC | 114 |
| Cc1ccc(-c2cc3c(N4CCC(C(=O)NC5CCCC5)CC4)nccn3n2)cc1C | 142 |
| CCc1nc2c(C)nc(Nc3ccccc3)nc2n1-c1ccccc1 | 120 |
| COc1ccc(OC)c2sc(N(Cc3ccncc3)C(=O)COc3ccc(Cl)cc3)nc12 | 123 |
| CC(=O)c1csc(NC(=O)Cn2nc(C(F)(F)F)c3c2CCCC3)n1 | 106 |
| CCS(=O)(=O)N1CCC(n2cnc3cccnc32)CC1 | 114 |
| CN1C(=O)/C(=N/NCc2ccccc2)c2ccccc21 | 127 |
| CC(=O)Nc1ccc(S(=O)(=O)Nc2ccc3c(c2)CCC(=O)N3)c(C)c1 | 103 |

Quoted from the listing:
CCc1nc2c(C)nc(Nc3ccccc3)nc2n1-c1ccccc1 – host macrophage viability [%]: 120
O=C1CCc2cc(S(=O)(=O)NCC(c3ccccc3)N3CCOCC3)ccc2N1 (centres undefined) – host macrophage viability [%]: 126
COc1ccccc1CCNC(=O)c1c(O)nc2cc(C)ccn2c1=O – host macrophage viability [%]: 114
CC(=O)c1csc(NC(=O)Cn2nc(C(F)(F)F)c3c2CCCC3)n1 – host macrophage viability [%]: 106
CN1C(=O)/C(=N/NCc2ccccc2)c2ccccc21 – host macrophage viability [%]: 127
CN(C)c1ccc(NC(=O)CSc2nnc3c(n2)[nH]c2ccc(Cl)cc23)cc1 – host macrophage viability [%]: 115

More compounds follow:

| Structure (SMILES) | host macrophage viability [%] |
| --- | --- |
| Cc1nc(Oc2ccc(F)cc2)c2c(C)c(C)sc2n1 | 106 |
| Cc1ccccc1-c1noc(-c2sc3nc[nH]c(=O)c3c2C)n1 | 132 |
| Cc1cc(C)n2c(SCC(=O)Nc3cccc4ccccc34)nnc2n1 | 115 |
| Cc1cc2ccccc2n2c(=O)n(CC(C)NC(=O)c3ccc(C(N)=O)cc3F)nc12 (centres undefined) | 121 |
| CC(=O)Nc1ccc(C(=O)CSc2nc(O)c3c(C)cc(C)nc3n2)cc1 | 112 |
| Oc1cccc(C2=NN3C(C2)c2ccccc2OC3c2ccccn2)c1 (centres undefined) | 99.6 |
| Cc1ccc(NC(=O)c2cc(=O)c3ccccc3o2)c(C(=O)c2ccccc2)c1 | 101 ± 7.8 |
| Cc1ccc(C2NC(=O)NC3=C2C(=O)CC(C)(C)C3)cc1 (centres undefined) | 105 |
| COc1cc(/C=C2/S/C(=N/c3ccc(C)cc3)NC2=O)cc(OC)c1OC | 108 |
| Cn1c2ccc(Br)cc2c2nnc(SCC(=O)NCc3ccccc3)nc21 | 118 |
| CCOc1ccc(-n2nnnc2CNS(=O)(=O)c2ccc(F)cc2F)cc1 | 125 |
| CS(=O)(=O)c1ccc(S(=O)CC(=O)Oc2ccc(C3CCCCC3)cc2)c([N+](=O)[O-])c1 (centres undefined) | 92.2 |
| CC(=O)CC1(O)C(=O)N(CCOc2ccccc2)c2ccccc21 (centres undefined) | 143 |
| O=c1c2sccc2n2c(=S)[nH]nc2n1CC1CCCO1 (centres undefined) | 122 |
| CC(C(=O)Nc1nc2c(s1)CCc1c-2cnn1C)N1C(=O)CSC1=O (centres undefined) | 120 |
| O=C(NCc1cccnc1)c1cnc2ccc(F)cc2c1O | 114 |
| COc1cccc(-n2c(C)c(C)n3c4c(=O)n(CC(=O)OCc5ccccc5)c(=O)n(C)c4nc23)c1 | 106 |
| Cc1cccc(NC(=O)c2sc3nc(-c4ccccc4)cn3c2C)c1 | 126 |
| CN(c1ncnc(N)c1[N+](=O)[O-])C1CCCCC1 | 101 |
| Cc1ccc(CSc2nc(=O)n3ccc(C)cc3n2)cc1 | 102 |
| COc1cccc(CNC(=O)c2cc3n(n2)CCCN(Cc2ccccc2)C3=O)c1OC | 118 |
| Nc1cc(-c2ccco2)nn(CC(=O)N2CCOCC2)c1=O | 94.9 |

As a working copy, three of the compounds above.

| Structure (SMILES) | host macrophage viability [%] |
| --- | --- |
| Cc1nc(Oc2ccc(F)cc2)c2c(C)c(C)sc2n1 | 106 |
| Cc1ccccc1-c1noc(-c2sc3nc[nH]c(=O)c3c2C)n1 | 132 |
| Cc1cc(C)n2c(SCC(=O)Nc3cccc4ccccc34)nnc2n1 | 115 |

(more compounds)

| Structure (SMILES) | host macrophage viability [%] |
| --- | --- |
| Cc1cccc2cc(CN(Cc3ccccc3)C(=O)c3ccccc3F)c(Cl)nc12 | 114 |
| COC(=O)c1sc2ccccc2c1NC(=O)c1ccc2ncsc2c1 | 105 |
| CCc1cc2c(N3CCC(C(=O)NCCCN4CCN(C)CC4)CC3)ncnc2s1 | 98.6 |
| Cc1cc(C)nc(SCCS(=O)(=O)c2nc3ccccc3s2)n1 | 115 |
| O=C(NC1CCCCC1)c1c(O)nc2sccn2c1=O | 116 |
| Cn1c(=O)c2[nH]c(SCC(=O)c3ccc4c(c3)OCCO4)nc2n(C)c1=O | 109 |
| Cc1cc(Nc2ccc(F)c(Cl)c2)n2ncnc2n1 | 128 |
| O=C(Cc1ccc(-c2ccccc2)cc1)Nc1nnc2n1CCS2 | 115 |
| O=C1CN(S(=O)(=O)c2ccc(Br)cc2)c2ccccc2N1 | 106 |
| CCOC(=O)c1sc(NC(=O)C2=COCCO2)cc1C | 110 |
| CCC(Cc1ccccc1)Nc1nn2nnnc2c2ccccc12 (centres undefined) | 120 |
| O=C(Nc1ccc(F)cc1F)N1CCc2nc(N3CCCCC3)ncc2C1 | 121 |
| COc1cccc(C(=O)Nc2cc(=O)n(C)c(=O)n2C)c1 | 128 |
| CCc1nnc(NC(=O)c2nn(-c3ccc(C)cc3)c3c(=O)n(C)cnc23)s1 | 108 |
| Cc1cccc(-n2nnc(C(=O)Nc3ccccc3)c2C)c1 | 133 |
| O=C(CSc1ccc(-c2ccco2)nn1)Nc1cccc(F)c1 | 119 |
| COCCNc1nc(N)c([N+](=O)[O-])c(Nc2cccc(Cl)c2)n1 | 105 |
| Cc1ccc(S(=O)(=O)n2nc(-c3ccccc3Cl)nc2N)cc1 | 111 |
| CCOc1ccccc1NC(=O)C1CCN(c2ncnc3oc(C)c(C)c23)CC1 | 117 |
| O=C(CCCOc1ccc(Cl)cc1Cl)N/N=C1/C(=O)Nc2ccccc21 | 103 ± 5.8 |
| CCCCC(=O)Nc1ncc(Cc2ccc(Cl)c(Cl)c2)s1 | 110 |
| O=C(Cc1ccccc1)NNC(=O)CC1SC(=O)NC1=O (centres undefined) | 98 |

| Structure (SMILES) | host macrophage viability [%] |
| --- | --- |
| O=C1c2ccncc2C(=O)N1CNc1ccccn1 | 120 |
| CCN(CC)CCN1C(=O)C(O)=C(C(=O)c2ccc(OC)cc2C)C1c1ccc(O)cc1 (centres undefined) | 115 |
| CC(C)Oc1ccc(C(=O)Nc2cccc3c2C(=O)c2ccccc2C3=O)cc1 | 124 |
| Cc1cc(C)c2ccc(NC(=O)c3c(-c4ccncc4)noc3C)nc2n1 | 103 |
| CC(=O)c1ccc(NC(=O)c2ccc(S(=O)(=O)N3CCC(C)CC3)cc2)cc1 | 106 |
| Cc1cc(C)cc(-n2nc3c(c2NC(=O)/C=C\c2ccc4c(c2)OCO4)CSC3)c1 | 107 |
| O=C(O)c1cccnc1SC1CC(=O)N(c2ccc(Cl)cc2[N+](=O)[O-])C1=O (centres undefined) | 128 |
| O=C(CC1Nc2ccccc2NC1=O)Nc1ccc2c(c1)OCO2 (centres undefined) | 117 |
| O=C(O)CSc1ccc(S(=O)(=O)C(F)(F)F)cc1[N+](=O)[O-] | 101 |
| Cc1c(C(=S)Nc2ccccc2)cnn1-c1ccc([N+](=O)[O-])cc1 | 116 |
| CC(=O)c1cccc(NC(=O)Nc2nc(SCc3c(F)cccc3Cl)ns2)c1 | 120 |
| CCOC(=O)c1c(C)oc2c1/C(=C/NCc1ccccn1)C(=O)c1ccccc1-2 | 126 |
| O=C(COc1ccccc1)Nc1nc2ccccc2s1 | 108 |
| COCCCNC(=O)CN1CCN(c2ncc(NC(=O)c3ccc(Cl)cc3)cc2C(=O)O)CC1 | 116 |
| Cc1csc(-c2csc(S(=O)(=O)N3CCC(C)CC3)c2)n1 | 88.6 |
| CCOC(=O)c1sc(NC(=O)C2CC2)cc1C | 111 ± 2.4 |
| CCOc1ccc(NC(=O)c2cccnc2-c2ccsc2)cc1 | 114 |
| O=C(c1noc2ccc(S(=O)(=O)N3CCN(Cc4ccc5c(c4)OCO5)CC3)cc12)N1CCCC1 | 130 |
| Cc1nn(-c2nc3ccccc3[nH]2)c2c1C(c1ccccc1C(F)(F)F)CC(=O)N2 (centres undefined) | 106 |
| Cc1cc(C)c2nc(NNC(=O)COc3ccccc3)sc2c1 | 122 ± 11 |
| CCc1nnsc1C(=O)Nc1ncc([N+](=O)[O-])s1 | 91.9 |
